# The supplement of paper PMC10849652
# Chains of the proteins cited; added tags and fusions are not shown. Lines headed by an entry give the natural chain unless they say otherwise; changes in a name come on top.
# UniProt O60613, whole entry, looked up: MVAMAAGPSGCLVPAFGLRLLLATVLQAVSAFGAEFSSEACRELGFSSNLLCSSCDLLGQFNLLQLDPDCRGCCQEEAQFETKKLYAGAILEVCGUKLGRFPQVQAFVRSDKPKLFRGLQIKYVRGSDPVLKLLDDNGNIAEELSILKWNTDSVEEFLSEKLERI
# UniProt Q8TD22: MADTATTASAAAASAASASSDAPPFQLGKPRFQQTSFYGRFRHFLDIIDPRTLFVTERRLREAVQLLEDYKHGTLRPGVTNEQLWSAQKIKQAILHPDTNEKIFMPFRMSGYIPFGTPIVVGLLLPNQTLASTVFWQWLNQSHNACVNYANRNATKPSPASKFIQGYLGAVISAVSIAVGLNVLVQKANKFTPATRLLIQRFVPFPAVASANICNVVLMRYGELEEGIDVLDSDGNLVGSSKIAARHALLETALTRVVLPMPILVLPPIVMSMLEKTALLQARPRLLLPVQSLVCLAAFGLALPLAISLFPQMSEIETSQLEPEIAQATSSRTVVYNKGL
# UniProt Q8IUQ4: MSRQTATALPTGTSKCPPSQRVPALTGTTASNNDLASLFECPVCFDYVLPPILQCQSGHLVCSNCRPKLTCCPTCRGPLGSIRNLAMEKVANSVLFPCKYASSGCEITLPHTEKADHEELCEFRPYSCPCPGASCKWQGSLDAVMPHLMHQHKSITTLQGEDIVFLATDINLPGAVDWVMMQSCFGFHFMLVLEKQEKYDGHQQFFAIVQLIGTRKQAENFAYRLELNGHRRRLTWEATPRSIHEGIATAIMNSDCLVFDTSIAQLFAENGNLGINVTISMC
# UniProt Q8NBJ9: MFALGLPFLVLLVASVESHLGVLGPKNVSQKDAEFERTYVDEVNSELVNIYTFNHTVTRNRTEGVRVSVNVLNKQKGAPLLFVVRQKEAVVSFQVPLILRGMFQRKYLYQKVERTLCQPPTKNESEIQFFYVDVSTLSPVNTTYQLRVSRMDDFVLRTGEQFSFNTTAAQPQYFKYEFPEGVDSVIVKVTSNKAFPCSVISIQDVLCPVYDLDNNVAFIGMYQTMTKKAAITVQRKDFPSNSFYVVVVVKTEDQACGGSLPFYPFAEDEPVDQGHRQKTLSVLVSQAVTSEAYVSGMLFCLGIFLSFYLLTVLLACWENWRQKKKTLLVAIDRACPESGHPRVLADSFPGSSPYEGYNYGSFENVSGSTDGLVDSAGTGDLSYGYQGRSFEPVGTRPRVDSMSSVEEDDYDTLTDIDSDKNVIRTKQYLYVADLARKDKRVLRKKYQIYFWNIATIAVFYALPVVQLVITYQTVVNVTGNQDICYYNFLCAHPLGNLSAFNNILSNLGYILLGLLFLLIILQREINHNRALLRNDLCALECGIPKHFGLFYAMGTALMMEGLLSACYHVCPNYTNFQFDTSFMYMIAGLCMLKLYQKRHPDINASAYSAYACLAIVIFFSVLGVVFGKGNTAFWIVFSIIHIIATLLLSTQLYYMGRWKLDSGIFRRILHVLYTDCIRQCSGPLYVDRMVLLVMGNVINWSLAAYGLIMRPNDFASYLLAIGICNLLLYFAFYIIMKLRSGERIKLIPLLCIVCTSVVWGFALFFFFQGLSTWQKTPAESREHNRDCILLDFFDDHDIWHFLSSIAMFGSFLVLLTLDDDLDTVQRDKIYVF
# UniProt Q99719: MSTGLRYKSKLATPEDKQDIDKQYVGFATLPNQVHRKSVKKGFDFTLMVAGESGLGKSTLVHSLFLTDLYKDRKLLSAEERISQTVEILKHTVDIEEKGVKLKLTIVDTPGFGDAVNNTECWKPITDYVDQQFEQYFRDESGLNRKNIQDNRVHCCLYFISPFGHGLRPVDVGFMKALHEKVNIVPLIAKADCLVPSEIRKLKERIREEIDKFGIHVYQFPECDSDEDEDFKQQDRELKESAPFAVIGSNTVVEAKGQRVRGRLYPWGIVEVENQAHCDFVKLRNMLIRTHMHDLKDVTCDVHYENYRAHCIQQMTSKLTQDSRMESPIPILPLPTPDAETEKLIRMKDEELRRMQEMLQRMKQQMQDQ
# UniProt Q587I9: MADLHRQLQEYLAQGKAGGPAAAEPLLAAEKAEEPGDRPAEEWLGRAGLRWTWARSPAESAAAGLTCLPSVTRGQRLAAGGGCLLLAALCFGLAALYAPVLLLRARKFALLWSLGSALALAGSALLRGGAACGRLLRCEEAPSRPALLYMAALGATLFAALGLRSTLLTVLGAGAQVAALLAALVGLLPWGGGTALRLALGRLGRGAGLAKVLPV
# UniProt Q9UHD8: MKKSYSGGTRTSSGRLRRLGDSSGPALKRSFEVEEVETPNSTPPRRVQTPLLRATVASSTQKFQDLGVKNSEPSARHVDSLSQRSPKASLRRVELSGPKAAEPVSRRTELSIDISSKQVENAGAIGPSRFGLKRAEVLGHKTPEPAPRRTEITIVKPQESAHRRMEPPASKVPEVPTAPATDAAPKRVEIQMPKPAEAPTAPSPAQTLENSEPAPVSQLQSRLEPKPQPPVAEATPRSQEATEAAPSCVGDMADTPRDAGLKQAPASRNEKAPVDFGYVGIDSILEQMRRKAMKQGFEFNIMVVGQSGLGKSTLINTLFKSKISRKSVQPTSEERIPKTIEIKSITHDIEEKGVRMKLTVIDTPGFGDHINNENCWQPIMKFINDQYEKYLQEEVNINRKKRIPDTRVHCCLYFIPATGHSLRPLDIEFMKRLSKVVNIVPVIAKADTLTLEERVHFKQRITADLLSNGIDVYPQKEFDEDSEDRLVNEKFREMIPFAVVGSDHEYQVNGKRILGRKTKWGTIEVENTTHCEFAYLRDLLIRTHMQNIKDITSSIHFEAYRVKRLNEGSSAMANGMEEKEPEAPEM
# UniProt Q8IXJ6: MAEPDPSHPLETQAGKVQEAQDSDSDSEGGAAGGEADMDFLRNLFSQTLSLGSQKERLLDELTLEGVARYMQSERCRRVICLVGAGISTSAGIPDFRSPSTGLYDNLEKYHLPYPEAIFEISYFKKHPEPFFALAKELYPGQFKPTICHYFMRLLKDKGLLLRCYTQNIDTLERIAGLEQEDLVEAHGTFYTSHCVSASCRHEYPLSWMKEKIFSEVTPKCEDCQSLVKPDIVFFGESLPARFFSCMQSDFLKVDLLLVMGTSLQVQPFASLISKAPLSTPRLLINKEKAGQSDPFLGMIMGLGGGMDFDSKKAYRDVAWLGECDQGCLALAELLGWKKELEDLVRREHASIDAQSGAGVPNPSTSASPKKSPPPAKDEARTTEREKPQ
# UniProt Q96EQ0: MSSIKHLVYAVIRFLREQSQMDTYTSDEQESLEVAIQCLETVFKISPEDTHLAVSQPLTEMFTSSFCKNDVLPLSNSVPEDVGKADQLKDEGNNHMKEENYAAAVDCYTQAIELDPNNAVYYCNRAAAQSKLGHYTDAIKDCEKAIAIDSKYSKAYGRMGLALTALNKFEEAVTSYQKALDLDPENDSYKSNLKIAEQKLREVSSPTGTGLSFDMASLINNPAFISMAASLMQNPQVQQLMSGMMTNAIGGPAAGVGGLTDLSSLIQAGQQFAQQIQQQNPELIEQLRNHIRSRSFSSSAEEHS
# UniProt Q9UJC5: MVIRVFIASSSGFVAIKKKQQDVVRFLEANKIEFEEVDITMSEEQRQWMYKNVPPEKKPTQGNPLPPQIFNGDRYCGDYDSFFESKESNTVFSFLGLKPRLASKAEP
# UniProt Q86TU7: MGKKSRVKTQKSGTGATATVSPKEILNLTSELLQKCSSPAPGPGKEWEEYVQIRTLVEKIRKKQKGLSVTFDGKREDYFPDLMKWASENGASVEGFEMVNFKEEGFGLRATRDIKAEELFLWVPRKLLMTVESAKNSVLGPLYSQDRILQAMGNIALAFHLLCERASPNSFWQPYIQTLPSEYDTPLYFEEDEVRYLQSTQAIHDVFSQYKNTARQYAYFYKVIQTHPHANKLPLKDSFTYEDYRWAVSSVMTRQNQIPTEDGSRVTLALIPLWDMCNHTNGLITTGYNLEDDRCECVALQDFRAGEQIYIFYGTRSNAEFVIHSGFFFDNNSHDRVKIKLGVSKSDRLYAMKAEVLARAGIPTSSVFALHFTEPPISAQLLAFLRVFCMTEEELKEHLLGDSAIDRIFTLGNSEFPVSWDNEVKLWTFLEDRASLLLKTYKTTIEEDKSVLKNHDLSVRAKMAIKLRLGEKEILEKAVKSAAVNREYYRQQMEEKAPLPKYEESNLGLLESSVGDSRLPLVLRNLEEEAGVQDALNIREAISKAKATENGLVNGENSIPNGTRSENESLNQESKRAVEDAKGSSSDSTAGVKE
# UniProt Q99961: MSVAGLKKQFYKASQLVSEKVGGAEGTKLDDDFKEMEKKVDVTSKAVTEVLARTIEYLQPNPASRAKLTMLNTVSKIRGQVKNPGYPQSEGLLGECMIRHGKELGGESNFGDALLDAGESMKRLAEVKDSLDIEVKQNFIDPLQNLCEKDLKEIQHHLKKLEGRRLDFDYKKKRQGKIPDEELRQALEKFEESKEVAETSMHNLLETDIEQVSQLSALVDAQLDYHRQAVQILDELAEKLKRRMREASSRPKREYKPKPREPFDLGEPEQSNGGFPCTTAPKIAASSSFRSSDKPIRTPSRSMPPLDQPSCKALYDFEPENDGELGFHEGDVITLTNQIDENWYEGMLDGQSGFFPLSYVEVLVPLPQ
# UniProt P50453: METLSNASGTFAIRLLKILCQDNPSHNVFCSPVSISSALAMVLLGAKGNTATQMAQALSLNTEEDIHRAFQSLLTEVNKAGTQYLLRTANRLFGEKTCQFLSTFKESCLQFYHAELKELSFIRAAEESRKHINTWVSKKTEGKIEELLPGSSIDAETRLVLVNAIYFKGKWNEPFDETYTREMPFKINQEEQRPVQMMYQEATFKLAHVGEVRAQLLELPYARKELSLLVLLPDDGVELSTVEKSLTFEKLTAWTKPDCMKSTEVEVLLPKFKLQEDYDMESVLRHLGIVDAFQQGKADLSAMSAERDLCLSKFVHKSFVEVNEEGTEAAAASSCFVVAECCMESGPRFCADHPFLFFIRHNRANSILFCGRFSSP
# UniProt Q13228: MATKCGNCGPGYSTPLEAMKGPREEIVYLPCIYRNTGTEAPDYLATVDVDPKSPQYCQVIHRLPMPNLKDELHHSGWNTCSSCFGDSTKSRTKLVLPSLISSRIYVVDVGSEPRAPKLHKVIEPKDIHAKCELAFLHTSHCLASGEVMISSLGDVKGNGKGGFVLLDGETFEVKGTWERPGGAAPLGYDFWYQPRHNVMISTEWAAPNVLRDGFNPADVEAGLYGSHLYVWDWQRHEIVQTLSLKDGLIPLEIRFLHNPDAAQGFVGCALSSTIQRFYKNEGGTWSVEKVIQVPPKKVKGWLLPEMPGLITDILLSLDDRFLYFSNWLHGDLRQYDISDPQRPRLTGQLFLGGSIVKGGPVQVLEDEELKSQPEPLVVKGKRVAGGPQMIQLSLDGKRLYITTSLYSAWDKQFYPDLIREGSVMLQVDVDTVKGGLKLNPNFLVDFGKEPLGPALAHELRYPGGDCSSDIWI
# UniProt Q9NR46: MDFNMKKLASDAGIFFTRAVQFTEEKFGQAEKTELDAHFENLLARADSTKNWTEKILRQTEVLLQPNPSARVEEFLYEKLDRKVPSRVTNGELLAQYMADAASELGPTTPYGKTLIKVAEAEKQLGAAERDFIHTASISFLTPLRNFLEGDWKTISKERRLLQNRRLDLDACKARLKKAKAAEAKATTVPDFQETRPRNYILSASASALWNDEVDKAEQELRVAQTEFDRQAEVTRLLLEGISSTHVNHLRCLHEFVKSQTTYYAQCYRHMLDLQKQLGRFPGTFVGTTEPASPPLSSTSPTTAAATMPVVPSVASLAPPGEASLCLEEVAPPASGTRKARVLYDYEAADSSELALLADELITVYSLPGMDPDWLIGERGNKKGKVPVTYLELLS
# UniProt P31947: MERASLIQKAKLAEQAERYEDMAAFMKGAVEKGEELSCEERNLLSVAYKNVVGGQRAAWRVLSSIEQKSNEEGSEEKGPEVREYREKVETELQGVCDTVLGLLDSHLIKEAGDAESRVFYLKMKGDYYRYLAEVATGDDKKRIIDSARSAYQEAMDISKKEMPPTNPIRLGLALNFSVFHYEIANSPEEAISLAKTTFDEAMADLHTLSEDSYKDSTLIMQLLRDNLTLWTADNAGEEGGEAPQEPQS
# Some of the results follow.
# Key:
# Test in all cases: log2 fold change, soluble protein after heating vs DMSO (PISA); higher = thermal stabilisation; K562 cells, 10 uM, 30 min; active = over 0.2 and 3.5 SD of the protein, either way, in both replicates (recomputed)
# [1] = compound: CS(=O)(=O)c1ccc(-c2cnc(N)c(C(=O)Nc3ccccc3)n2)cc1
# How it was run: (§1)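 K562 cells at 2×10^6 cells/mL were treated for 30 min with 10 μM compound, and aliquots were heated for 3 min over 48°C-58°C before pooling. Extraction used PBS with 0.5% NP-40 at 4°C, and soluble protein was the supernatant after 21,000xg for 90 min, measured by TMTpro 16plex LC-MS/MS with channel sums equalised. Thermal stability values, relative to control samples and from duplicates, are log2 fold changes.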
# crizotinib = compound: C[C@@H](Oc1cc(-c2cnn(C3CCNCC3)c2)cnc1N)c1c(Cl)ccc(F)c1Cl [crizotinib]
# How it was run: as §1
# [2] = compound: C[C@@H]1COCCN1C2=NC(=NC(=C2)C3(CC3)S(=O)(=O)C)C4=C5C=CNC5=CC=C4
# How it was run: as §1
# [3] = compound: C[C@H](C1=CC=C(C=C1)C(=O)NC2=C3C=CNC3=NC=C2)N
# How it was run: as §1
# duvelisib = compound: C[C@H](Nc1ncnc2nc[nH]c12)c1cc2cccc(Cl)c2c(=O)n1-c1ccccc1 [duvelisib]
# How it was run: as §1
# gandotinib = compound: Cc1cc(Nc2cc(CN3CCOCC3)c3nc(C)c(Cc4ccc(Cl)cc4F)n3n2)n[nH]1 [gandotinib]
# How it was run: as §1
# tozasertib = compound: Cc1cc(Nc2cc(N3CCN(C)CC3)nc(Sc3ccc(NC(=O)C4CC4)cc3)n2)n[nH]1 [tozasertib]
# How it was run: as §1
# [4] = compound: Cc1cc(SCc2sc(-c3ccc(C(F)(F)F)cc3)nc2C)ccc1OCC(=O)O
# How it was run: as §1
# doramapimod = compound: Cc1ccc(-n2nc(C(C)(C)C)cc2NC(=O)Nc2ccc(OCCN3CCOCC3)c3ccccc23)cc1 [doramapimod]
# How it was run: as §1
# ispinesib = compound: Cc1ccc(C(=O)N(CCCN)[C@@H](c2nc3cc(Cl)ccc3c(=O)n2Cc2ccccc2)C(C)C)cc1 [ispinesib]
# How it was run: as §1
# bafetinib = compound: Cc1ccc(NC(=O)c2ccc(CN3CC[C@H](N(C)C)C3)c(C(F)(F)F)c2)cc1Nc1nccc(-c2cncnc2)n1 [bafetinib]
# How it was run: as §1
# [5] = compound: Cc1cccc(CC(=O)N2CCc3c2ccc(-c2cn(C)c4ncnc(N)c24)c3F)n1
# How it was run: as §1
# nilotinib = compound: Cc1cn(-c2cc(NC(=O)c3ccc(C)c(Nc4nccc(-c5cccnc5)n4)c3)cc(C(F)(F)F)c2)cn1 [nilotinib]
# How it was run: as §1
# [6] = compound: Cc1nc(Nc2n[nH]c3c2CN(C(=O)N[C@H](CN(C)C)c2ccccc2)C3(C)C)c2sccc2n1
# How it was run: as §1
# dasatinib = compound: Cc1nc(Nc2ncc(C(=O)Nc3c(C)cccc3Cl)s2)cc(N2CCN(CCO)CC2)n1 [dasatinib]
# How it was run: as §1
# [7] = compound: Cc1ncc(-c2ccnc(Nc3ccc(S(C)(=O)=O)cc3)n2)n1C(C)C
# How it was run: as §1
# [8] = compound: Cn1cc(-c2ccc3c(c2)CCN3C(=O)Cc2cccc(C(F)(F)F)c2)c2c(N)ncnc21
# How it was run: as §1
# [9] = compound: Cn1cc(-c2ccc3nnc(C(F)(F)c4ccc5ncccc5c4)n3n2)cn1
# How it was run: as §1
# tipifarnib = compound: Cn1cncc1[C@@](N)(c1ccc(Cl)cc1)c1ccc2c(c1)c(-c1cccc(Cl)c1)cc(=O)n2C [tipifarnib]
# How it was run: as §1
# mubritinib = compound: FC(F)(F)c1ccc(/C=C/c2nc(COc3ccc(CCCCn4ccnn4)cc3)co2)cc1 [mubritinib]
# How it was run: as §1
Target,log2 fold change [1],log2 fold change (crizotinib),log2 fold change [2],log2 fold change [3],log2 fold change (duvelisib),log2 fold change (gandotinib),log2 fold change (tozasertib),log2 fold change [4],log2 fold change (doramapimod),log2 fold change (ispinesib),log2 fold change (bafetinib),log2 fold change [5],log2 fold change (nilotinib),log2 fold change [6],log2 fold change (dasatinib),log2 fold change [7],log2 fold change [8],log2 fold change [9],log2 fold change (tipifarnib),log2 fold change (mubritinib)
SELENOF (UniProt O60613),inactive: 0.054,inactive: 0.062,inactive: 0.023,inactive: 0.043,inactive: 0.027,inactive: 0.024,inactive: -0.005,inactive: -0.018,inactive: 0.001,inactive: 0.01,inactive: 0.002,inactive: -0.034,inactive: 0.031,inactive: 0.049,inactive: 0.013,inactive: -0.052,inactive: -0.004,inactive: 0,inactive: 0.022,inactive: -0.017
SFXN5 (UniProt Q8TD22),inactive: 0.144,inactive: 0.021,inactive: 0.073,inactive: -0.137,,inactive: -0.026,,inactive: 0.076,inactive: -0.055,inactive: 0.049,active: -0.3,inactive: 0.017,inactive: -0.052,inactive: 0.049,inactive: 0.084,inactive: 0.134,inactive: 0.107,inactive: 0.093,inactive: 0.022,inactive: 0.041
SIAH1 isoform 2 (UniProt Q8IUQ4),inactive: -0.016,inactive: -0.095,inactive: 0.37,inactive: 0.034,inactive: -0.004,inactive: 0.07,inactive: -0.155,inactive: 0.022,inactive: -0.016,,inactive: 0.206,inactive: -0.175,,,inactive: -0.099,,inactive: -0.043,,inactive: -0.014,
SIDT2 isoform 2 (UniProt Q8NBJ9),inactive: 0.132,inactive: -0.026,inactive: -0.017,inactive: -0.004,,inactive: 0.006,,inactive: -0.186,inactive: 0.254,inactive: -0.143,inactive: -0.24,inactive: -0.025,inactive: -0.005,inactive: 0.104,inactive: 0.041,inactive: 0.025,inactive: -0.003,inactive: 0.038,inactive: 0.073,inactive: -0.001
SEPTIN5 (UniProt Q99719),inactive: 0.004,inactive: 0.017,inactive: 0.036,inactive: -0.036,,inactive: -0.023,,inactive: -0.017,inactive: -0.017,inactive: 0.027,inactive: -0.017,inactive: 0.021,inactive: -0.011,inactive: 0.002,inactive: -0.048,inactive: -0.006,inactive: 0.051,inactive: 0.025,inactive: -0.024,inactive: 0.007
SFT2D3 (UniProt Q587I9),inactive: -0.037,inactive: 0.02,inactive: 0.047,inactive: -0.093,inactive: 0.116,inactive: -0.05,inactive: 0.001,inactive: -0.151,inactive: 0.01,inactive: 0.095,inactive: -0.053,inactive: -0.01,inactive: 0.078,inactive: -0.035,inactive: 0.034,inactive: -0.11,inactive: -0.004,inactive: -0.16,inactive: 0.208,inactive: 0.046
SEPTIN9 (UniProt Q9UHD8),inactive: 0.053,inactive: 0.009,inactive: 0.035,inactive: -0.06,inactive: 0.013,inactive: -0.06,inactive: 0.007,inactive: 0.017,inactive: -0.02,inactive: 0.07,inactive: -0.045,inactive: 0.005,inactive: -0.025,inactive: -0.005,inactive: -0.004,inactive: -0.026,inactive: 0.034,inactive: 0.019,inactive: 0.008,inactive: 0.019
SIRT2 (UniProt Q8IXJ6),inactive: 0.042,inactive: -0.015,inactive: -0.002,inactive: 0.072,,inactive: 0.002,,inactive: -0.032,inactive: -0.009,inactive: -0.001,inactive: -0.041,inactive: -0.003,inactive: 0.061,inactive: -0.006,inactive: -0.032,inactive: -0.051,inactive: 0.104,inactive: -0.002,inactive: 0.027,inactive: 0.067
SGTB (UniProt Q96EQ0),inactive: -0.012,inactive: -0.011,inactive: 0.021,inactive: -0.091,,inactive: -0.01,inactive: 0.038,,inactive: -0.007,inactive: -0.004,inactive: -0.009,inactive: 0.008,inactive: -0.016,inactive: -0.008,,inactive: 0.009,inactive: 0.047,inactive: 0.018,inactive: 0.028,inactive: 0.051
SH3BGRL2 (UniProt Q9UJC5),inactive: 0.038,inactive: 0.039,inactive: 0.022,inactive: -0.12,inactive: 0.099,inactive: 0.007,inactive: 0.047,inactive: 0.068,inactive: -0.063,inactive: 0.002,inactive: -0.022,inactive: -0.11,inactive: 0.083,inactive: 0.01,inactive: 0.018,inactive: 0.021,inactive: 0.006,inactive: -0.052,inactive: -0.05,inactive: 0.007
SETDB1 (UniProt Q15047),inactive: 0.052,inactive: 0.02,inactive: 0.054,inactive: -0.013,inactive: 0.028,inactive: -0.073,inactive: -0.226,inactive: -0.021,inactive: 0.048,inactive: -0.085,,inactive: -0.036,inactive: -0.263,inactive: 0.1,inactive: 0.025,inactive: 0,inactive: 0.091,inactive: 0.007,inactive: 0.018,inactive: 0.052
SETD3 (UniProt Q86TU7),inactive: 0.007,inactive: 0.051,inactive: 0.076,inactive: -0.012,,inactive: 0.021,,inactive: 0.012,inactive: -0.026,inactive: 0.059,inactive: -0.015,inactive: -0.005,inactive: 0.002,inactive: -0.009,inactive: 0.006,inactive: -0.023,inactive: 0.033,inactive: 0.031,inactive: 0.029,inactive: 0.052
SH3GL1 (UniProt Q99961),inactive: 0.067,inactive: -0.144,inactive: 0.024,inactive: 0.062,,inactive: -0.031,,inactive: 0.103,inactive: 0.007,inactive: -0.156,inactive: -0.018,inactive: 0.069,inactive: -0.084,inactive: -0.18,inactive: -0.262,inactive: -0.014,inactive: 0.055,inactive: 0.02,inactive: -0.114,inactive: 0.122
SERPINB9 (UniProt P50453),inactive: -0.01,inactive: 0.012,inactive: 0.055,inactive: -0.088,inactive: 0.018,inactive: 0.063,inactive: -0.011,inactive: -0.017,inactive: -0.034,inactive: 0.039,inactive: -0.02,inactive: 0.004,inactive: 0.037,inactive: -0.009,inactive: 0.014,inactive: 0.013,inactive: 0.043,inactive: 0.012,inactive: -0.043,inactive: 0.012
SELENBP1 isoform 4 (UniProt Q13228),inactive: 0.001,inactive: 0.003,inactive: 0.055,inactive: -0.045,inactive: 0.009,inactive: -0.025,inactive: -0.029,inactive: -0.057,inactive: -0.017,inactive: 0.072,inactive: 0.043,inactive: -0.011,inactive: 0.02,inactive: 0.001,inactive: 0.061,inactive: -0.003,inactive: 0.035,inactive: 0.021,inactive: 0.004,inactive: 0.05
SH3GLB2 (UniProt Q9NR46),inactive: 0.031,inactive: -0.104,inactive: -0.101,inactive: 0.013,,inactive: -0.183,,inactive: 0.073,inactive: 0.013,inactive: -0.052,inactive: -0.029,inactive: 0.044,inactive: -0.051,inactive: -0.15,inactive: -0.147,inactive: -0.066,inactive: 0.006,inactive: -0.1,inactive: -0.091,inactive: 0.098
SFN (UniProt P31947),inactive: 0.002,inactive: 0,inactive: 0.039,inactive: -0.029,inactive: 0.043,inactive: -0.077,inactive: 0.04,inactive: -0.05,inactive: -0.011,inactive: 0.033,inactive: 0.019,inactive: -0.035,inactive: -0.013,inactive: 0.012,inactive: 0.018,inactive: -0.013,inactive: 0.021,inactive: -0.012,inactive: 0.086,inactive: -0.045

# Shown as tab-separated lines: entries from further up.
Target	log2 fold change [1]	log2 fold change (crizotinib)	log2 fold change [2]	log2 fold change [3]	log2 fold change (duvelisib)	log2 fold change (gandotinib)	log2 fold change (tozasertib)	log2 fold change [4]	log2 fold change (doramapimod)	log2 fold change (ispinesib)	log2 fold change (bafetinib)	log2 fold change [5]	log2 fold change (nilotinib)	log2 fold change [6]	log2 fold change (dasatinib)	log2 fold change [7]	log2 fold change [8]	log2 fold change [9]	log2 fold change (tipifarnib)	log2 fold change (mubritinib)
SIAH1 isoform 2 (UniProt Q8IUQ4)	inactive: -0.016	inactive: -0.095	inactive: 0.37	inactive: 0.034	inactive: -0.004	inactive: 0.07	inactive: -0.155	inactive: 0.022	inactive: -0.016		inactive: 0.206	inactive: -0.175			inactive: -0.099		inactive: -0.043		inactive: -0.014	
SELENBP1 isoform 4 (UniProt Q13228)	inactive: 0.001	inactive: 0.003	inactive: 0.055	inactive: -0.045	inactive: 0.009	inactive: -0.025	inactive: -0.029	inactive: -0.057	inactive: -0.017	inactive: 0.072	inactive: 0.043	inactive: -0.011	inactive: 0.02	inactive: 0.001	inactive: 0.061	inactive: -0.003	inactive: 0.035	inactive: 0.021	inactive: 0.004	inactive: 0.05
SH3GLB2 (UniProt Q9NR46)	inactive: 0.031	inactive: -0.104	inactive: -0.101	inactive: 0.013		inactive: -0.183		inactive: 0.073	inactive: 0.013	inactive: -0.052	inactive: -0.029	inactive: 0.044	inactive: -0.051	inactive: -0.15	inactive: -0.147	inactive: -0.066	inactive: 0.006	inactive: -0.1	inactive: -0.091	inactive: 0.098
